For assay [1], the target named is T1, FLAG and S tagged AZI1, stably expressed in 293T cells (UniProt Q9UPN4).
T1 sequence: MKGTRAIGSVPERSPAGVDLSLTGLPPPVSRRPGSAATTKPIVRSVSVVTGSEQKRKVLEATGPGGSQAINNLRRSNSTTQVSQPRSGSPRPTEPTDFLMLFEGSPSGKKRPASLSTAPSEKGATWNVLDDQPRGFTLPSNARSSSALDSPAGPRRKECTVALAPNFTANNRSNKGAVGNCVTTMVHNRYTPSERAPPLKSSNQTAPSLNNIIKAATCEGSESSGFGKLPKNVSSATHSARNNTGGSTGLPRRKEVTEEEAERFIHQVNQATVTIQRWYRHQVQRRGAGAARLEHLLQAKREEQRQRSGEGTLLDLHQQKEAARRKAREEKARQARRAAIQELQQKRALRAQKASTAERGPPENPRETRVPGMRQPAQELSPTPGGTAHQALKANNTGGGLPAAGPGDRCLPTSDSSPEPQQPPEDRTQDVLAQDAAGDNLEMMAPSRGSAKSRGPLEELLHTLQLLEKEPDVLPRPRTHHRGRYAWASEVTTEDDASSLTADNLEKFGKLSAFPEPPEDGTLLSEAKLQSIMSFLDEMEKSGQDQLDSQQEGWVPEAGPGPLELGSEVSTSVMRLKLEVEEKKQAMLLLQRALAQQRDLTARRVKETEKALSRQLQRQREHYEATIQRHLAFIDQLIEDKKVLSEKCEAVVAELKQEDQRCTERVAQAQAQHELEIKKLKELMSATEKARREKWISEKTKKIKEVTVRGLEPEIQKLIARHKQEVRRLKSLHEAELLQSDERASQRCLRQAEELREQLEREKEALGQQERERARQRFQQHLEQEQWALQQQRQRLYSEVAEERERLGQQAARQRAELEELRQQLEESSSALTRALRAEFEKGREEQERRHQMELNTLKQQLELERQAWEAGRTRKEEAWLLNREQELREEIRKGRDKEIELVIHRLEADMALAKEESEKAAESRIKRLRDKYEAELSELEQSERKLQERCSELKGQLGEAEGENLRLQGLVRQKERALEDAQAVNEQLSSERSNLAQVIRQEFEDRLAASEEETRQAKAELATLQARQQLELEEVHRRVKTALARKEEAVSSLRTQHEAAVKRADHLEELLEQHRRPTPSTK
The experiment in a line: co-IP; 293T cells stably expressing FLAG and S tagged AZI1 (parental cells as negative control); FLAG agarose beads; input and precipitate Western blotted.

Sequences of proteins named here, by UniProt entry; tags and fusion partners are left off.
UniProt O15078: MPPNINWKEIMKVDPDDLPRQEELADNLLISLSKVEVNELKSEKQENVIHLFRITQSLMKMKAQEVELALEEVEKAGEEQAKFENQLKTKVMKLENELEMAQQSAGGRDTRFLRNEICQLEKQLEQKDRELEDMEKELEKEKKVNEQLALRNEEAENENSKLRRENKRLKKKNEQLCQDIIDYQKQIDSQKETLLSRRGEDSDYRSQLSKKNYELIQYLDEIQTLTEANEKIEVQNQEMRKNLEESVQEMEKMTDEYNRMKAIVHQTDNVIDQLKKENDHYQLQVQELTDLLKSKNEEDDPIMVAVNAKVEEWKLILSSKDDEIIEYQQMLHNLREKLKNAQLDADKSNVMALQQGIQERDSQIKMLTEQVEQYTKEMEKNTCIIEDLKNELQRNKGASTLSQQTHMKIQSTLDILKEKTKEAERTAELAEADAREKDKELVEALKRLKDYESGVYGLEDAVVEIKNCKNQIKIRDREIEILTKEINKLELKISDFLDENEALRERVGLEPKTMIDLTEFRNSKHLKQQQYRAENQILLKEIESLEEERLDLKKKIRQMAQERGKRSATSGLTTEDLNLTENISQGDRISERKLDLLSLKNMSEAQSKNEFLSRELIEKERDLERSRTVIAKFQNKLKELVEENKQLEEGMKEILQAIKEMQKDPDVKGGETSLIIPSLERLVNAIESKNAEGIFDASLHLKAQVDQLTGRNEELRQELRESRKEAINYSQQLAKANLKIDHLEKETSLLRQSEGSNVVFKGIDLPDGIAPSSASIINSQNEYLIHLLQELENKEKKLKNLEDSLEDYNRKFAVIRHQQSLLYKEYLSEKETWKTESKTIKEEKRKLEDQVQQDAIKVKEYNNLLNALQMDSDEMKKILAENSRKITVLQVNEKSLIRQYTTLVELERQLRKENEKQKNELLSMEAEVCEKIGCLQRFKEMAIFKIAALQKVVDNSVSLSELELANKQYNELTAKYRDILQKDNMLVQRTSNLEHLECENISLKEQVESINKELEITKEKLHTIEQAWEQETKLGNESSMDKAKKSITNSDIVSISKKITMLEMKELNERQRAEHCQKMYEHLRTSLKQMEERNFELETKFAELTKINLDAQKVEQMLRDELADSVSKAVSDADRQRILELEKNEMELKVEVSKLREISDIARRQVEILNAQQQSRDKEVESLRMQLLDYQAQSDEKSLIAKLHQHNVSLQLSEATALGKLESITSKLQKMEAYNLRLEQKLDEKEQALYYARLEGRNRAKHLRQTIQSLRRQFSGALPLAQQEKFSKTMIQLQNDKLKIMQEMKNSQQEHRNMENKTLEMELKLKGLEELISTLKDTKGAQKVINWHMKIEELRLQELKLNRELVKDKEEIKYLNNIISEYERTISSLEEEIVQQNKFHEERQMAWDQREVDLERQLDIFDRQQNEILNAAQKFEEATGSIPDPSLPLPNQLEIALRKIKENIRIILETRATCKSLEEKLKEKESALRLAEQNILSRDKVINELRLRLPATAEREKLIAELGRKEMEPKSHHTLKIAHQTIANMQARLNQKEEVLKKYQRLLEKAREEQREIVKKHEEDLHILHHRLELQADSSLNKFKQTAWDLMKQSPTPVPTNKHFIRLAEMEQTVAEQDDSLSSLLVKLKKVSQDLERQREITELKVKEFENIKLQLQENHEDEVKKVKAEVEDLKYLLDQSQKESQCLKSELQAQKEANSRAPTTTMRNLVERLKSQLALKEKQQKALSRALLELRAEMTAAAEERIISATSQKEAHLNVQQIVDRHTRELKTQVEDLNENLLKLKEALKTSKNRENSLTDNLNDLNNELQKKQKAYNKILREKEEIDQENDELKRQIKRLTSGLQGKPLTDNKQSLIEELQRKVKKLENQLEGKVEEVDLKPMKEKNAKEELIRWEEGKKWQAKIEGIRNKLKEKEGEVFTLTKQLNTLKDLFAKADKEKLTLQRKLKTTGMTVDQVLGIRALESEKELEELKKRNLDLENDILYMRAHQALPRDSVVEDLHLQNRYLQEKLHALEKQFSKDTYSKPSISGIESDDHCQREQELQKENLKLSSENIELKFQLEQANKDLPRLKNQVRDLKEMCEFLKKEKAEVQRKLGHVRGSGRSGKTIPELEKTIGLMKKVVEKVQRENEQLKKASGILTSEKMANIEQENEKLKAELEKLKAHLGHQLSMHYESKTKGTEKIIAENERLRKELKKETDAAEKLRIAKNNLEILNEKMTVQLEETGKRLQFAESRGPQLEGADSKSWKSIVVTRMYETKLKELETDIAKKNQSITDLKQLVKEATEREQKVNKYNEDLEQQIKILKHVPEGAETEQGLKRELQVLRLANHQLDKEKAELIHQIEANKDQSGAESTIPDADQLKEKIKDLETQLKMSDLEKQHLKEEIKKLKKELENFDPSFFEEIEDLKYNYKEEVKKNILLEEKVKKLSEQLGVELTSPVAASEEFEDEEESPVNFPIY
UniProt Q15154: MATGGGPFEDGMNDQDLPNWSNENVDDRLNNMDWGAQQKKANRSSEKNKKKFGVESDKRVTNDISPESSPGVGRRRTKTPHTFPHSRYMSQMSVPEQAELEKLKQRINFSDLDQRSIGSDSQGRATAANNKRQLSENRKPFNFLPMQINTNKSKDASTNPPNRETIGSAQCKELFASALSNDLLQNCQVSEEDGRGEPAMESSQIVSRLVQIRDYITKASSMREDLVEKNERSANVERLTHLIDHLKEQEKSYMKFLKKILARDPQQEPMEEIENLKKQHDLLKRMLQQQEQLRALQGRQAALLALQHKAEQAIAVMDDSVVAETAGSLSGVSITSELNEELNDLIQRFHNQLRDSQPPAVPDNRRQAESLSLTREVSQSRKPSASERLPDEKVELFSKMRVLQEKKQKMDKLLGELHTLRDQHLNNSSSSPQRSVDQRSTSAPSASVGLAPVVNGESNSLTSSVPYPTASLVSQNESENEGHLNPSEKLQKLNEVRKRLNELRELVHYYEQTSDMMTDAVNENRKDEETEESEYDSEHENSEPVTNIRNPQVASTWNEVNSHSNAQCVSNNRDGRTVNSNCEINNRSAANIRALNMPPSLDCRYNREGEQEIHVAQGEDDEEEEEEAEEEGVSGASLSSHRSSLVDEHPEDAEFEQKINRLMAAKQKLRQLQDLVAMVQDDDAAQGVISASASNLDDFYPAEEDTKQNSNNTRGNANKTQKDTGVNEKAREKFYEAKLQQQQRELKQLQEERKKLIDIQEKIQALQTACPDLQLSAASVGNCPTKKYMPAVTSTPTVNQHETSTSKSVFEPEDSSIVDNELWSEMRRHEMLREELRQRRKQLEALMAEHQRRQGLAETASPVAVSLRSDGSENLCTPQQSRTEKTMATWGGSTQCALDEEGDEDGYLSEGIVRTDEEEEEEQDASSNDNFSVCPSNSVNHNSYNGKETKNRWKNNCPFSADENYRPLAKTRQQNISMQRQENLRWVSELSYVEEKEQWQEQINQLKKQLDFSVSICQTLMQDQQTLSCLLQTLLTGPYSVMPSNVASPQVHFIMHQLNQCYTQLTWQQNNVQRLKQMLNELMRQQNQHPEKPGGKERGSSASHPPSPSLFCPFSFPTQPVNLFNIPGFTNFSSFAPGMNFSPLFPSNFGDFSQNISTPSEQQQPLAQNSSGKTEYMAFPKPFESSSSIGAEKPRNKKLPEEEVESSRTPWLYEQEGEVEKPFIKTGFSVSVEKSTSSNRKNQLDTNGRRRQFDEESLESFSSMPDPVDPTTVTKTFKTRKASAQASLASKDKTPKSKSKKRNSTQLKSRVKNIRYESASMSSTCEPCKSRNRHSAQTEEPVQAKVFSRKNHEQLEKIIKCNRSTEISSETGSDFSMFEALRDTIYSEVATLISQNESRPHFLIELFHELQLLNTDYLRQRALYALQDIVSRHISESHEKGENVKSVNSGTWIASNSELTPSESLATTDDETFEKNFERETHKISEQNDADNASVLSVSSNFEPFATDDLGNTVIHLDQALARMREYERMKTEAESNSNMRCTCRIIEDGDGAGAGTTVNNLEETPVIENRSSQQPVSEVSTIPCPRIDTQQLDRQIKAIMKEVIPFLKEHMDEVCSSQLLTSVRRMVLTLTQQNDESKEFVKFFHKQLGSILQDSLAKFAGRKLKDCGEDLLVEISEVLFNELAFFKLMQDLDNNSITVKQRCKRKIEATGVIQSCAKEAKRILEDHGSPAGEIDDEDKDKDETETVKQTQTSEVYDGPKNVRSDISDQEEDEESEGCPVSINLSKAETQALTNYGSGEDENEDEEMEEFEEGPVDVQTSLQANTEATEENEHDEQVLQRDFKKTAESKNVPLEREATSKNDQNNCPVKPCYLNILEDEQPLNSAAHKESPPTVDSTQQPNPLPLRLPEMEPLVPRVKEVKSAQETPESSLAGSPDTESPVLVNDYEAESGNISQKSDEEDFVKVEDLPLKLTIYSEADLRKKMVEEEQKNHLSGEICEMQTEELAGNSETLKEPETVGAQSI

The target of assay [2] is T2, FLAG and S tagged BBS4, transiently transfected (UniProt Q96RK4).
T2 sequence: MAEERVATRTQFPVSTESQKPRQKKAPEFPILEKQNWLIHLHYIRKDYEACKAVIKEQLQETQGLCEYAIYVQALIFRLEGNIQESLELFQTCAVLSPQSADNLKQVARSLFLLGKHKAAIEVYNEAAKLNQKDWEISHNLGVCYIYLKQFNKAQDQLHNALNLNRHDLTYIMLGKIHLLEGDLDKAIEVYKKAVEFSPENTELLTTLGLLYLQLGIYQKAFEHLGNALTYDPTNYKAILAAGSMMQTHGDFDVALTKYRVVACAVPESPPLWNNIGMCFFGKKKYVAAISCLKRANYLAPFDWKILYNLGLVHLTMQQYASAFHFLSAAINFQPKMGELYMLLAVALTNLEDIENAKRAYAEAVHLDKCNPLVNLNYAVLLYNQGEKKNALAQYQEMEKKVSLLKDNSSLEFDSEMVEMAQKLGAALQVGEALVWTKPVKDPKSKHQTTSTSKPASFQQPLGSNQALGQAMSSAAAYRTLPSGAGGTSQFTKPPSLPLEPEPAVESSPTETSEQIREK
Briefly: co-IP; 293T cells transiently transfected with individual FLAG and S tagged BBSome subunits; FLAG agarose beads; immunoblot with AZI1 and PCM1 antibody. (Immunoblotting shows a protein as a band on a membrane.)

Assay [3] has as its target T3, BBS4, endogenous in 293T cells (human (endogenous in 293T)) (UniProt Q96RK4).
T3 sequence: T2 sequence
Briefly: co-sedimentation; 293T cell lysates (control, AZI1 or PCM1 siRNA) separated by 10-40% sucrose gradient ultracentrifugation; fractions 7-19 immunoblotted for BBS proteins, AZI1 and PCM1.

The target in assay [4] is T4, FLAG and S tagged AZI1, stably expressed in 293T cells, Q9UPN4.
T4 chain: T1 sequence
The experiment in a line: co-IP; 293T cells stably expressing FLAG and S tagged AZI1 (parental cells as negative control); FLAG agarose beads; input and precipitate Western blotted. As to conditions: remark: other sources report otherwise.

The target in assay [5] is T5, FLAG-BBS4, stably expressed in 293T cells (UniProt Q96RK4).
T5 sequence: T2 sequence
Briefly: co-IP; 293T cells stably expressing FLAG tagged BBS4, 5, 8 or 9; FLAG agarose beads; immunoblot with AZI1 antibody.

Assay [6] has as its target T2, FLAG and S tagged BBS4, transiently transfected. The experiment in a line: co-IP; 293T cells transiently transfected with individual FLAG and S tagged BBSome subunits; FLAG agarose beads; immunoblot with AZI1 and PCM1 antibody. This is another data set of the same source.
Assay [7] addresses T6, LAP (localization and purification) tagged human BBS4 (human) (UniProt Q96RK4).
T6 sequence: T2 sequence
Briefly: tandem affinity purification (TAP); tissue lysates from LAP-BBS4 transgenic mice; how the co-purified proteins were detected is not stated.

Where two headings read alike, the source gives them in different places. No constants are given. Whether binding was seen depends on the method and setting. For some of these results: In cells and extracts the contact can be indirect. Some binding calls cover weakened binding; strength is not graded here. For some of these results: Tags and fused reporters may be left off the sequences shown.

Turning to “CEP290, endogenous in 293T cells (from UniProt O15078 1-2479)”, the binding result in assay [1] was “binds”.
On to “PCM1, endogenous in 293T cells (from UniProt Q15154 1-2024)”, for which the binding result in assay [2], in assay [3] and in assay [1] was “binds” in each case.

B1: BBS4, endogenous in 293T cells (protein, UniProt Q96RK4 1-519)
chain: T2 sequence
With B1, in assay [1], the binding result is on record as “binds”.

B2: AZI1, endogenous in 293T cells, Q9UPN4 1-1083 (protein)
chain: T1 sequence
In the case of B2, the binding entry in assay [4] was “binds”.

B3: AZI1, endogenous in 293T cells (protein, UniProt Q9UPN4 1-1083)
chain: T1 sequence
For B3, the binding entry in assay [3], in assay [5] and in assay [6] was “binds” throughout.

B4: Lztfl1 (protein, UniProt Q9JHQ5 1-299)
chain: MAELGLNEHHQNEVINYMRFARSKRGLRLKTVDSCFQDLKDSRLVEETFTIDEVSEVLNGLQAVVHSEVESELINTAYTNVLLLRQLFSQAEKWYLKLQTDISELENRELLEQVAEFEKAEFVSSSKKPIIDITKPKLVPINEGGTTELLNKEILRLQQENEKLKSRLKTIEIQAVNALDEKSKLERVLQDLQLDQENQQDLLKAQDLDDLENTVATLRSEFQKTLNDKTENQKSLEENLAAAKHDLLRVQEQLSMAEKELEKKFQQTAAYRNMKEILTKKNDQIKDLRKRLAKYESED
Turning to B4, the binding entry in assay [7] is “binds”.

(Values after PMC3923683.)
